Data as given in patent US8257725B2, “Delivery of highly lipophilic agents via medical devices” (Abbott Laboratories, priority 1997, dated 2012).
At least one structure is not confirmed: it was looked up by name or label, or the drawing left a doubt.

What was measured:
Type in all cases: physicochemical
[1] = Elution from dip-loaded PC-coated stent; conditions: after 24 hours
[2] = Accelerated elution from PC-coated stents (polyethylene glycol 660, pH 4); conditions: different zotarolimus-to-dexamethasone ratios; FIG. 15
[3] = Octanol/water partition coefficient, shake-flask method; conditions: FIG. 21; S = equilibrium aqueous solubility (μg/ml)
Description: “Solubility” is based on a standard measure used in medicinal chemistry. The octanol-water partition coefficient (P) is the ratio of distribution of a compound in a mixture of 1-octanol and H2O. LogP is the base 10 logarithm of the partition coefficient.
In the measurement of the partition coefficient (octanol/water), preliminary studies were conducted to determine the optimum drug concentration for each test, and the appropriate time for establishing the partition equilibrium. All experiments were carried out by two different analysts and on multiple drug lots.
A transfer coefficient, τ, can be defined as P divided by S, where P equals the partition coefficient and S equals theequilibrium aqueous solubility, (μg/ml) as shown in FIG. 21. […] Where S equals the equilibrium aqueous solubility of the amorphous form of the drug were possible.

[4] = Six-hour elution from PC1036-coated coupons in pH 7.4 phosphate buffered saline; conditions: after six hours; in the presence of zotarolimus; PBS pH 7.4, 37° C.
Description: Prior to any experimentation, coated stainless steel coupons were prepared. These coupons were 316L electropolished stainless steel discs (10 mm diameter). This size was chosen because the surface area of one side of the coupon is similar to the surface area of a 15-mm open cell BiodivYsio stent. […]. The cleaning was a two-step process in which the coupons are sonicated for 3 minutes in dichloromethylene and 3 minutes in ethanol. The coupons were allowed to dry at room temperature. One side of the coupon was coated using a filtered 20-mg/mL solution of phosphoryl choline polymer PC1036 (product of Biocompatibles Ltd., Famham, Surrey, UK) in ethanol. Twenty μL PC solution was placed onto the coupon using a gas tight glass syringe, ensuring that the entire surface was coated but not spilling over the sides of the coupon. The coupons were initially air dried and then cured at 70° C. for 16 hours. They were then sent for gamma irradiation at <25 KGy. The resulting PC coating thickness was close to that of the stent and thick enough to accommodate the desired loaded drug dose, as graphically represented in FIG. 9A-B. FIG. 9A-B is a top and side view of a coated stainless steel coupon 30, having a PC-coating 20 on a electropolished stainless steel disc. […]
Six coated coupons of each drug were used for the elution experiments. […] The amount of drug in the elution samples was determined by HPLC.

Row | SMILES | amount released from the stent ([1]; PC-coated stent containing zotarolimus and dexamethasone) | amount released from the stent ([1]; PC-coated stent, no zotarolimus in the coating) | accelerated elution from stent [2] | transfer coefficient (P divided by S), order [3] | amount released from the coupon [4]
1 | C[C@@H]1C[C@H]2[C@@H]3CCC4=CC(=O)C=C[C@]4(C)[C@@]3(F)[C@@H](O)C[C@]2(C)[C@@]1(O)C(=O)CO [Dexamethasone] | almost no dexamethasone was released | about 40% | increasingly slow with increasing zotarolimus concentration | zotarolimus>>paclitaxel>>rapamycin>dexamethasone | –
2 | CC(C)OC(=O)C(C)(C)Oc1ccc(C(=O)c2ccc(Cl)cc2)cc1 [Fenofibrate] | – | – | – | – | about 7%
